PubChem BioAssay AID624291 (National Center for Advancing Translational Sciences (NCATS), 2012)
The campaign covered roughly 350,000 compounds. About 220 (0.063%) were called active. Inconclusive results, whose numbers are uncertain, are shown with a selection of clear calls. Calls follow the shape of the dose curve; as a rule, active = well fitted activation curve with a large enough effect; inconclusive = small, poorly fitted or top-dose-only effect; inactive = no such curve, though single readings can be large or run the other way. Where the call is inconclusive, the potency comes from a doubtful curve fit.

Experiment: qHTS for Activators of Integrin-Mediated Alleviation for Muscular Dystrophy; also: nearly all actives have a fitted effect of over 60% in size;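 as to activation: 100% = response of the positive control SU9516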
Conditions: alpha7betagal myoblasts, beta-gal FDG fluorescence, 48 h; activation: at 38.3 µM (top of the series)
Text: Integrins are a diverse family of transmembrane cell surface receptors that mediate interactions between cells and the extracellular matrix. These heterodimeric proteins are composed of alpha and beta subunits and the a7b1 interacts with laminin in the extracellular matrix and actin of the cell cytoskeleton. Both chains contribute to ligand binding, but the alpha chain mediates the specificity of the interaction. The alpha7beta1 integrin is a major laminin receptor in skeletal, cardiac and vascular smooth muscle. Mutations in the alpha7 integrin gene are responsible for muscular dystrophy in both humans and mice. The alpha7beta1 integrin is also a major modifier of muscle disease progression in various muscle diseases including Duchenne muscular dystrophy, Fukuyama muscular dystrophy and merosin deficient congenital muscular dystrophy type 1A. […] Transcriptional regulation of the alpha7 integrin gene is poorly understood and probably involves multiple transcription factors. The goal of identifying small molecules that enhance alpha7 integrin expression is two-fold: firstly, such molecules would help us gain insight into the complex transcriptional control of alpha7 integrin. It is known that alpha7 integrin expression is tightly controlled during various stages of development, disease and in response to external stimuli. The second goal of the project is to translate the above finding into a therapeutic strategy for muscular dystrophy. […] Thus this project aims to discover small molecule probes that would not only help in gaining a better understanding of the complex regulatory mechanism of alpha7 integrin expression, but also lead to development of pharmacological agents to fight muscular dystrophy. NIH Chemical Genomics Center [NCGC] NIH Molecular Libraries Probe Centers Network [MLPCN] MLPCN Grant: NS058429 Assay Submitter (PI): Dean Burkin, University of Nevada School of Medicine
A total of 250 alpha7betagal+/- myoblasts at passage 13 were dispensed using a mulitdrop from Thermo into black low base tissue culture treated microclear aurora plates in 6 ul media containing DMEM without phenol, 5% FBS, 1x GluMax and 1x Penicillin/Streptomycin. The plates were incubated 16-24 hr at 37C, 5% CO2, 95% humidity covered with low evaporation stainless steel lids from Kalypsys. Compounds were then dispensed using a Kalypsys pintool to deliver 23 nl/well compounds in DMSO (diluted into 6 uL resulting in a 1:260 dilution of compound). The control compound used was the cdk2 inhibitor SU9516 from Tocirs (found in the initial LOPAC screen). The plates were incubated for 48 hours at 37C, 5% CO2, 95% humidity using the same stainless steel lids. After incubation with compound, 5 ul of the media was aspirated using the Kalypsys washer/dispenser and 3 ul of the Mammalian Protein Extraction Reagent (MPER) lysis buffer (Thermo Fisher) was added. The plates were spun at 2000 rpms to remove bubbles and an initial capture was acquired on the Viewlux (Perkin Elmer) with exciation at 480 nm and emission at 540 nm for 25 seconds to omit any auto fluorescent compounds. The plates were then incubated for 10 minutes at room temperature. After incubation, 3 ul of 125 uM Fluorescein di-galactoside (FDG) (Marker Gene Technologies) diluted in PBS with 2 mM MgCl2 and 0.2% betamercaptoethanol (BME) was added, the plates were spun at 2000 rpms and incubated for 30 minutes at room temperature. The plates were again read on the Viewlux with exciation at 480 nm and emission at 540 nm for 25 seconds.
Potency is read from the fitted curve at half-maximal effect.

| Compound | activation | Potency |
| --- | --- | --- |
| CCNC(=S)N/N=C/c1cc(C)ccc1C | inactive: -17.3% |  |
| COc1cc(NC(=O)NCC2CCN(Cc3ccccc3C)CC2)cc(OC)c1OC |  | inconclusive: 2.24 µM [activator, full curve, poor fit] |
| COc1ccc([N+](=O)[O-])cc1NC(=O)CCCOc1ccccc1 | inactive: -1% |  |
| Cc1ccc(CN2CCC(CNC(=O)Nc3ccccc3F)CC2)cc1 |  | inconclusive: 5.01 µM [activator, single point] |
| CC1CCCCN1C(=O)CCC(=O)Nc1nnc(C(F)(F)F)s1 (stereo unspecified) |  | inconclusive: 28.2 µM [activator, single point] |
| COc1ccc2nc(NC(=O)Cn3cnc4ccccc4c3=O)sc2c1 |  | inconclusive: 1.58 µM [activator, partial curve, poor fit] |
| Cc1ccc(S(=O)(=O)N(C)c2ccc(OCC(=O)Nc3cc(C(=O)O)ccc3Cl)cc2)cc1 |  | inconclusive: 10 µM [activator, single point] |
| Cn1c(CNC(=O)c2ccccc2F)nnc1SCC(=O)c1ccccc1 | inactive: 2.73% |  |
| CC(Sc1nnc(-c2ccco2)n1C)C(=O)Nc1nccs1 (stereo unspecified) |  | inconclusive: 0.501 µM [activator, full curve, poor fit] |
| CC(=O)Oc1cc2c(cc1Cl)C(c1cccs1)CC1(CC(C)(C)NC(=S)N1)O2 (stereo unspecified) | inactive: 23.2% |  |
| CCn1cc(CCC(=O)NCc2cccc(OC)c2OC)c2ccccc21 |  | inconclusive: 28.2 µM [activator, single point] |
| CC(=O)NCc1ccc(C(=O)COC(=O)COc2ccccc2)s1 |  | inconclusive: 12.6 µM [activator, single point] |
| Cn1c(SCC(=O)O)nnc1-c1cccc(NC(=O)c2cccc3ccccc23)c1 |  | inconclusive: 28.2 µM [activator, single point] |
| COc1ccc(-n2c(SCC(=O)Nc3ccc(C(=O)O)cc3)nnc2-c2ccccc2)cc1OC | inactive: 15.1% |  |
| CCOc1ccc(N(CC(=O)Nc2ccccc2C)S(=O)(=O)c2c(C)[nH]c(=O)[nH]c2=O)cc1 | inactive: 11.2% |  |
| COc1cc(NC(=O)CC(C)S(=O)(=O)c2cc3c(cc2C)NC(=O)CO3)cc(OC)c1OC (stereo unspecified) |  | inconclusive: 0.501 µM [activator, full curve, poor fit] |
| CCC(NC(=O)c1cc(COc2ccc(F)c(F)c2)on1)c1ccncc1 (stereo unspecified) |  | inconclusive: 2.82 µM [activator, single point] |
| COCCNC(=O)CSc1nc2ccc(N3CCOCC3)cc2c(=O)n1CCc1ccccc1 | inactive: 43.2% [at 7.66 µM] |  |
| Cc1cc(Cl)c(Cl)cc1S(=O)(=O)NCCCn1ccnc1 |  | inconclusive: 28.2 µM [activator, single point] |
| O=C(CN1C(=O)NC2(CCOc3ccccc32)C1=O)Nc1ccc2c(c1)OCCO2 (stereo unspecified) |  | inconclusive: 3.98 µM [activator, full curve, poor fit] |
| Cc1ccc(NC(=O)c2ccc(COc3ccccc3)o2)nc1 |  | inconclusive: 3.16 µM [activator, single point] |
| C[C@@H]1CN([C@@H](C)CO)C(=O)c2cccc(NC(=O)C3CCCCC3)c2O[C@@H]1CN(C)Cc1ccc(Cl)c(Cl)c1 | inactive: -26.8% |  |

Among those listed so far, four contain a Cl atom.

| Compound | activation | Potency |
| --- | --- | --- |
| Cc1ccc(S(=O)(=O)N(C)c2ccc(OCC(=O)Nc3cc(C(=O)O)ccc3Cl)cc2)cc1 |  | inconclusive: 10 µM [activator, single point] |
| CC(=O)Oc1cc2c(cc1Cl)C(c1cccs1)CC1(CC(C)(C)NC(=S)N1)O2 (stereo unspecified) | inactive: 23.2% |  |
| Cc1cc(Cl)c(Cl)cc1S(=O)(=O)NCCCn1ccnc1 |  | inconclusive: 28.2 µM [activator, single point] |
| C[C@@H]1CN([C@@H](C)CO)C(=O)c2cccc(NC(=O)C3CCCCC3)c2O[C@@H]1CN(C)Cc1ccc(Cl)c(Cl)c1 | inactive: -26.8% |  |

More compounds

| Compound | activation | Potency |
| --- | --- | --- |
| N#Cc1c(-c2ccccc2)nc(N2CCN(Cc3ccccc3)CC2)[nH]c1=O |  | inconclusive: 5.62 µM [activator, full curve, poor fit] |
| c1cc(CNC23CC4CC(CC(C4)C2)C3)ccn1 |  | inconclusive: 28.2 µM [activator, partial curve, poor fit] |
| CCCCc1c(C)[nH]c(=S)[nH]c1=O | inactive: 0.42% |  |
| COc1cccc(-c2cc(C(=O)NC3CCCCC3)no2)c1 |  | inconclusive: 28.2 µM [activator, single point] |
| COc1ccc(S(=O)(=O)N2CCOCC2)cc1NC(=O)COc1ccc(C(C)=O)cc1OC | inactive: 8.55% |  |
| CC1CCN(CCCCOc2cccc(C(C)C)c2)CC1 |  | inconclusive: 5.01 µM [activator, single point] |
| O=S(=O)(N/N=C\c1ccc(-c2ccccc2Cl)o1)c1ccccc1 | inactive: 0.0474% |  |
| O=C(N=C1SC2CS(=O)(=O)CC2N1c1ccc(Cl)cc1)C1CCCO1 (stereo unspecified) |  | inconclusive: 6.31 µM [activator, partial curve, poor fit] |
| COc1ccccc1NC(=O)c1cc(-c2cc(OC)c(OC)c(OC)c2)nc2ccccc12 |  | inconclusive: 28.2 µM [activator, single point] |
| CC(=O)c1c[nH]c(C(=O)NCc2cccc(C(F)(F)F)c2)c1 |  | inconclusive: 2.24 µM [activator, full curve, poor fit] |
| Cc1nc(N)sc1N=Nc1ccccc1C(F)(F)F |  | inconclusive: 10 µM [activator, single point] |
| COc1ccc(NS(=O)(=O)c2ccc(O)c(NC(=O)c3ccc(S(=O)(=O)N4CCCC4)cc3)c2)cc1 |  | inconclusive: 28.2 µM [activator, single point] |
| O=C(CSc1nnnn1-c1ccc2c(c1)OCCO2)N1CCN(C(=O)c2ccco2)CC1 |  | inconclusive: 28.2 µM [activator, single point] |
| O=C(O)c1nnn(-c2ccc([N+](=O)[O-])cc2)c1-c1ccccc1 |  | inconclusive: 28.2 µM [activator, partial curve, poor fit] |
| O=C(c1ccc(S(=O)(=O)NCc2ccco2)cc1)N1CCN(c2ccc(F)cc2)CC1 |  | inconclusive: 10 µM [activator, partial curve, poor fit] |
| O=C(CN(Cc1ccco1)C(=O)c1ccc(Cl)cc1)Nc1c(Cl)cc(Cl)cc1Cl |  | inconclusive: 3.16 µM [activator, partial curve, poor fit] |
| Cc1coc(C)c1C(=O)Nc1ccc2ccccc2c1 |  | inconclusive: 2.51 µM [activator, single point] |
| Cc1ccc(S(=O)(=O)CCC(=O)OCC(=O)N2CC(=O)Nc3ccccc32)cc1 | inactive: -26.5% |  |
| Cc1ccc(OCC(=O)NNC(=O)C2CCC2)cc1C |  | inconclusive: 7.94 µM [activator, partial curve, poor fit] |
| CC(C)c1ccc(S(=O)(=O)NC2CCS(=O)(=O)C2)cc1 (stereo unspecified) | inactive: 0% |  |
| Cc1cc(C)cc(N(C(=O)CNC(=O)c2ccco2)C(C(=O)NC2CCCCC2)c2cccnc2)c1 (stereo unspecified) |  | inconclusive: 12.6 µM [activator, single point] |
| CSc1ccc(/C=N/n2c(C3CCCCC3)n[nH]c2=S)cc1 |  | inconclusive: 3.16 µM [activator, single point] |

| Compound | activation | Potency |
| --- | --- | --- |
| Cc1ccc(/C(N)=N/OC(=O)c2cccs2)cc1 |  | inconclusive: 28.2 µM [activator, single point] |
| CCOc1ccc(OCCC(=O)OCC(=O)N2CCN(S(=O)(=O)c3ccc(C)cc3C)CC2)cc1 | inconclusive: -10.9% [activator] |  |
| Nc1[nH]n2c(=O)cc(-c3ccccc3)nc2c1N=Nc1ccc(S(N)(=O)=O)cc1 |  | inconclusive: 11.2 µM [activator, partial curve, poor fit] |
| CC(C)(C)C(=O)Nc1ncccc1C(O)c1cccc(C(F)(F)F)c1 (stereo unspecified) |  | inconclusive: 0.891 µM [activator, full curve, poor fit] |
| COc1ccc(-n2cc(CNCCCn3ccnc3)c(-c3cccc(F)c3)n2)cc1 | inactive: -24.8% |  |
| O=C(COC(=O)c1ccc(O)cc1O)Nc1cc(-c2ccccc2)nn1-c1ccccc1 | inactive: 6.61% |  |
| CCOc1cccc(/C=N/NC(=S)Nc2ccccc2[N+](=O)[O-])c1O | inactive: -46.6% |  |
| COc1cnc(SCCC(F)=C(F)F)[nH]c1=O |  | inconclusive: 5.01 µM [activator, single point] |
| COCCCn1c(SCC(=O)NC2CCCCC2)nnc1-c1ccco1 | inactive: 3.72% |  |
| Cc1ccc(N=C(N)N=C(N)N)c(C)c1 | inactive: -12.5% |  |
| COc1ccc(/C=C/c2nc(S(=O)(=O)c3ccccc3)c(NCCCN(C)C)o2)cc1OC |  | inconclusive: 5.01 µM [activator, single point] |
| S=C(NCCc1ccccc1)NC1CC2CCC(C1)N2Cc1ccccc1 (stereo unspecified) | inactive: -48.6% |  |
| O=C(NCc1ccccn1)c1nc(Cn2cc([N+](=O)[O-])cn2)no1 |  | inconclusive: 3.55 µM [activator, single point] |
| O=C(Nc1ccc(F)cc1)N1CCCCCC1 |  | inconclusive: 15.8 µM [activator, single point] |
| COc1ccc(S(=O)(=O)NCc2ccccn2)cc1NC(=O)c1ccccc1F |  | inconclusive: 2.24 µM [activator, partial curve, poor fit] |
| Cc1ccc(NC(=O)CCC(=O)Nc2nnc(C3CCCCC3)s2)cc1 |  | inconclusive: 1.12 µM [activator, partial curve, poor fit] |
| CCOc1ccc(NC(=O)C2C3CCC4C(CCC32)C4(Cl)Cl)cc1 (stereo unspecified) |  | inconclusive: 7.08 µM [activator, partial curve, poor fit] |
| Cc1nc2c(Br)cc(Br)cc2cc1O |  | inconclusive: 31.6 µM [activator, single point] |
| Nc1ccc2nc(CCCCCCCCc3nc4ccc(N)cc4[nH]3)[nH]c2c1 |  | inconclusive: 22.4 µM [activator, single point] |
| Cc1c(CCC(=O)NCCC(=O)O)c(=O)oc2cc3occ(-c4ccccc4)c3cc12 |  | inconclusive: 4.47 µM [activator, single point] |
| Cc1ccc(-c2cc(-c3ccccc3)nc(N)c2C#N)o1 |  | inconclusive: 5.01 µM [activator, single point] |
| CCOC(=O)CSc1nc(N2CCOCC2)c2c(c1C#N)CC(C(C)C)OC2 (stereo unspecified) |  | inconclusive: 8.91 µM [activator, partial curve, poor fit] |
